4 molecules from publication PMC12624062 can be followed below.

Sequences of proteins named here, by UniProt entry; tags and fusion partners are left off.
UniProt Q8CDG1: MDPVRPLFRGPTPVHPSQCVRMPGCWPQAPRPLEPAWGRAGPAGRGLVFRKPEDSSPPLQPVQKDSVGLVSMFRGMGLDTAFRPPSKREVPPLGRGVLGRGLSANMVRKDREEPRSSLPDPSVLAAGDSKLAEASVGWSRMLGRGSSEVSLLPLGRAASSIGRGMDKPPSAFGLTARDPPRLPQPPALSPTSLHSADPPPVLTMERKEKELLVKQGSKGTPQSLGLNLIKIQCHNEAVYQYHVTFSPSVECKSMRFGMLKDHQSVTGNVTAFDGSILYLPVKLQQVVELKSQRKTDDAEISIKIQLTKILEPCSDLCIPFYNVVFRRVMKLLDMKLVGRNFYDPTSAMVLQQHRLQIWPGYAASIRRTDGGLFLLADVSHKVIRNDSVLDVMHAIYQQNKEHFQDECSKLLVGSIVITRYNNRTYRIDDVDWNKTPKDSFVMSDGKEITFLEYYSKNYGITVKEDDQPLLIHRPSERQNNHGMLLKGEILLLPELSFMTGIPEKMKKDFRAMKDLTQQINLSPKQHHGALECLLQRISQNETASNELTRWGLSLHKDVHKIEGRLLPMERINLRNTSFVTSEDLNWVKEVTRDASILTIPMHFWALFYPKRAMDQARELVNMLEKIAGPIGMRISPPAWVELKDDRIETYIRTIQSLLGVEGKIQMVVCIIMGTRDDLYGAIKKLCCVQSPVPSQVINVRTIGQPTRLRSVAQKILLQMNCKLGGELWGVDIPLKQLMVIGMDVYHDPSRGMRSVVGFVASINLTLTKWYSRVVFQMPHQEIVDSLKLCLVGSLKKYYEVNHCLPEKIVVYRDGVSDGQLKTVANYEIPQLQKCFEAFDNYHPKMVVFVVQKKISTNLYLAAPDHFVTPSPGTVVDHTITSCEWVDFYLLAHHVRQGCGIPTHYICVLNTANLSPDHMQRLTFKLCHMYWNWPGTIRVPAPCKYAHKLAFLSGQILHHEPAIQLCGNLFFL

Common to all, as to assay: affinity purification with mass spectrometry; P20 wild-type mouse testis lysates; IP with PIWIL2, ASZ1 or TDRD1 antibodies against rabbit IgG control; Protein A/G agarose; LC-MS; n = 3
Assay [1] concerns the target T1, ASZ1 (endogenous, mouse testis) (mouse (endogenous in testis)) (UniProt Q8VD46).
T1 sequence: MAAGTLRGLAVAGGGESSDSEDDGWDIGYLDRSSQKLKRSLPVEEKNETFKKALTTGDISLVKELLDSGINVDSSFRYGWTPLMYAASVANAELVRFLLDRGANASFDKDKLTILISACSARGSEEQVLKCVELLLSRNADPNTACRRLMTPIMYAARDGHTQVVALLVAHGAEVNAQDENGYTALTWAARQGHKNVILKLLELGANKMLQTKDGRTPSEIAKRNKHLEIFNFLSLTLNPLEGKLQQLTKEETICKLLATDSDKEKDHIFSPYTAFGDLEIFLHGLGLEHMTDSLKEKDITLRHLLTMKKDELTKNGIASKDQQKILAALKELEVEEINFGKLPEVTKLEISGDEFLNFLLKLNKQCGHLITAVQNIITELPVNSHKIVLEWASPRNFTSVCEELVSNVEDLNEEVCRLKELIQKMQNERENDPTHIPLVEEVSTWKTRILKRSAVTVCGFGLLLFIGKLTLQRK

Assay [2] addresses PIWIL2 (endogenous, mouse testis) (mouse (endogenous in testis)) (UniProt Q8CDG1).
For assay [3], the target named is PIWIL2 (endogenous, mouse testis) (mouse (endogenous in testis)), Q8CDG1. The conditions noted are these: remark: other sources report otherwise.
The target of assay [4] is T2, ASZ1 (endogenous, mouse testis) (mouse (endogenous in testis)), Q8VD46.
T2 chain: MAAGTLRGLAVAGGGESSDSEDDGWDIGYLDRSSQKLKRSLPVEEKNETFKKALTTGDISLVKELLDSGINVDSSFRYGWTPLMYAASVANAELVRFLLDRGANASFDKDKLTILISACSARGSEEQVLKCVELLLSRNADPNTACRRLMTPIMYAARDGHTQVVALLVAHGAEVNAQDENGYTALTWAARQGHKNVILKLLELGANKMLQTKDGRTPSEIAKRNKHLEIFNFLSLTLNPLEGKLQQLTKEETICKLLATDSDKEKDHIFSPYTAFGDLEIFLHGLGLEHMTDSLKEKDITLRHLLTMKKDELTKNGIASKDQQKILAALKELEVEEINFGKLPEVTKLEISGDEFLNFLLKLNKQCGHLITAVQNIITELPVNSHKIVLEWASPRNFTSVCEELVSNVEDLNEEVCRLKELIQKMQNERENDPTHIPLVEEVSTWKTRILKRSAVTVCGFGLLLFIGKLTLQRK
The note with it: remark: other sources report otherwise.

Results are given in words; binding and its absence hold for the method and conditions named. In cells and extracts the contact can be indirect. A yes stands for co-enrichment or nearness to the bait. Other partners may have been found.

B1: MOV10L1 (endogenous, mouse testis) (protein, UniProt Q99MV5 1-1187)
chain: MIDDLIYFSNDAVTSTVLLNVGQEVIAVVEENKVSNGLKAIRVEAVSDKWEDDSKNSSKGLSDSSPRVLIGCVTSMLEGAGYISQTTYFSLESVCEGFHPCKGDWVEAEYWIRPGTWSSEAISVKPLRYKRVDKVCISSLCGRNGVIEDSIFFSLDSLKLPEGYIPRRHDIVNAVVVESSQSCYIWRALCMTPVKRDATLGEAPQEPYGALLLKNKGDIEVTRMTSFGTLKEGESKSIVIWIENKGKFSRELVSCRLANWDKAHQFRFETQGRSKSCPGAAAGSVPEGENVNSLNHHREDKTDEIPESRLANSTEISPDGCACKEESREKGNTPEKQEPEPGGLIPPGEKTHIVVTCSAKNPGRCKELLLLCFSDFLIGRHLEVSVVSSEEALIAVREPFSWKKPKSSQTLVSAKTTVVVTTQKRNSRRQLPSFLPQYPIPDRLKKCVEQKIDILTFQPLLAELLNMSNYKEKFSTLLWLEEIHAEIELKEYNMSRVVLKRKGDLLVLEVPGLAESRPSLYAGDKLILKSQEYNGHVIEYIGYVMEIHEEDVTLKLNPGFEQMYNFEPMDVEFTYNRTTSRRCHYALEQVIHLGVKVLFPEEIILQSPQVTGNWSLAQDTKNDGQSITNITRNDGQSMTKVTRNDSQSITNIIRNDGQSITNVTRNDGQPITKVTRNNSQSITNITRNDGQPITKNKKTVKDQTKHTTEERHVGTTDQPEKASSTAETMDEIQIPKARDKEFFNPVLNENQKLAVRRILSGDCRPLPYILFGPPGTGKTVTIIEAVLQVHYALPDSRILVCAPSNSAADLVCLRLHESKVPKPAAMVRVNATCRFEETIIDAIKPYCRDGEDIWRASRFRIIITTCSSAGLFYQIGVRVGYFTHVFVDEAGQASEPECLIPLGLISDINGQIVLAGDPMQLGPVIKSRLAMAYGLNVSMLERLMSRPAYLRDENAFGACGAYNPLLVTKLVKNYRSHSALLALPSRLFYHRELEVCADPKVVTSLLGWEKLPRKGFPLIFHGVRGNEAREGRSPSWFSPAEAVQVMRYCCLLARSVSSQVSSKDIGVITPYRKQVEKIKILLRNVDLTDIKVGSVEEFQGQEYLVIVISTVRSNEDRFEDDRYFLGFLSNSKRFNVAITRPKALLIILGNPHVLVRDPCFGALLEYSVSNGVYTGCDLPPELQALQK
For B1, the binding entry in assay [1] and in assay [2] was “binds” each time.

B2: GPAT2 (endogenous, mouse testis), Q14DK4 1-801 (protein)
chain: MDTMLKSNPQTQQRSNHNGQETSLWSSSFGMKMEAITPFLGKYRPFMGRCCQTCTPKSWESLFHRSIMDLGFCNVILVKEENTRFRGWLVRRLCYFLWSLEQHIPTSFDASQKIMENTGVQNLLSGRVPGAAGEGQAPELVKKEVQRILGHIQTTPRPFLLRLFSWALLWFLNRLFLNVQLHKGQMKMVQKAVQEGSPLVFLSTHKSLLDGFLLPFVLFSQGLGVVRVALDSRTCSPALRALLRKLGGLFLPPEVNLSLDNSEGILARAVVRATVEELLTSGQPLLIFLEEPPGSPGPRLSALGQAWLGVVIQAVQAGIISDATLVPVAIAYDLVPDAPCNMNHDLAPLGLWTGALAVFRRLCNCWGCNRRVCVRVHLAQPFSLQEYTINARSCWDSRQTLEHLLQPIVLGECSVVPDTEKEQEWTPPTGLLLALKEEDQLLVRRLSRHVLSASVASSAVMSTAIMATLLLLKHQKGVVLSQLLGEFSWLTEETLLRGFDVGFSGQLRCLAQHTLSLLRAHVVLLRVHQGDLVVVPRPGPGLTHLARLSMELLPTFLSEAVGACAVRGLLAGRVPPEGPWELQGIELLSQNELYRQILLLLHLLPQDLLLPQPCQSSYCYCQEVLDRLIQCGLLVAEETPGSRPACDTGRQHLSAKLLWKPSGDFTDSESDDFEEPGGRCFRLSQQSRCPDFFLFLCRLLSPILKAFAQAATFLHLGQLPDSEVAYSEKLFQFLQACAQEEGIFECADPNLAISAVWTFKDLGVLQEMPSPTGPQLHLSPTFATRDNQDKLEQFIRQFICS
As to B2, the binding entry in assay [3] is listed as “binds”.

B3: TDRD5 (endogenous, mouse testis) (protein, UniProt Q5VCS6 1-1040)
chain: MSEQERIQDCLRKEIRSLLISTKDGLTPQQLEKEYLLMVGNHLPLRILGYRSTMELVLDMPDVVSVCPGGDGTVILKAIPDESTKGIASLVAKQRRSHKVRNSMPKGRPSICSGRVPYRGRVPPILPAVVKSELKDLLALSPVLLSDFEKAFARRFGRSFQYMQYGFLSMFEVLNAASDVISVEQTRAGSLLTLKKSVSEDKQRGWPAGKVFTQPFRMKQQGSYSTGFPVMKAHFSQPISNMEPPKQVLSMAKTPTFNSVEASRLNHTEKLNQLESTFKSVIAQIGPGGTVDPELKRKIQFVVSKFPQGLFISKLLGEFELTFKEQLSPKQLGFLNVTELVGALSDILRVEFSEERQDLLVFDADLKPLPSGGPLSSVRNSCLVQPDKKTEANPWTSSLSRNSLSTVAVKKTTWDCPLKNQKEPEQKIYKKPNLVVKPLQLQVETNKPQLSLSVANHDIPPDAVRAKKLCRLPPLDTSTLVGVFVEYIISPSQFYIRIYSRDSSELLEDMMIEMRRCYSNQLVSDRYIMPEYFIQPGHLCCVKISEDKWWYRVIIHRILGKKEVEVFYPDFGNIGTVQKSSLRFLKCCYTKLPAQAIPCSLAWVRPAEEHWTARAILHFQKLCGLKPLVGVVDEYIDGILNIFLCDTSSNEDVYFHHVLRTEGHAIVCRENAPSKGFRDFNPPALYTNASSAGDMVLTDLGHPAQQHYLNEDQEILQQAQQDINDGKCISYLKSAPKELLKDSKLSSLKTHKSCEEDPRWSILQPKDLKEENEDEVPTGMPCLESVTIGDDVWDENWLPLQAKMGKAGSPASQLFTSNLVGKKQYQTGGEMAQKDWCFSTSKDIWDDSWQPLGLANDVKGGIHTPEGPIAQEKNTSTTRIQQQPDLQYPLDSSTLPKLEEFYISLIKSQQSAERSQSEPASIQTHAGRAASKALSSTPAVGDSPENHSGSVESSPGSLKKEDVSNSRAEATAKDKSQGAIDQLSFILSPQHQISQKLYIPRSTATAVLGAAARLATSRSLLHWYPSVKGGKLEAERDGVK
As for B3, the results for the binding entry in assay [1] and in assay [2] were “binds weakly” and “binds”, respectively.

B4: TDRKH (endogenous, mouse testis), Q80VL1 1-560 (protein)
chain: MSTERTSWTNLSTIQKIALGLGIPASATVAYILYRRYRESREERLTFVGEDDIEIEMRVPQEAVKLIIGRQGANIKQLRKQTGARIDVDTEDVGDERVLLISGFPVQVCKAKAAIHQILTENTPVFEQLSVPQRSVGRIIGRGGETIRSICKASGAKITCDKESEGTLLLSRLIKISGTQKEVAAAKHLILEKVSEDEELRKRIAHSAETRVPRKQPISVRREEVTEPGGAGEAALWKNTNSSMGPATPLEVPLRKGGGDMVVVGPKEGSWEKPNDDSFQNSGAQSSPETSMFEIPSPDFSFHADEYLEVYVSASEHPNHFWIQIIGSRSLQLDKLVSEMTQHYENSLPEDLTVHVGDIVAAPLSTNGSWYRARVLGTLENGNLDLYFVDFGDNGDCALKDLRALRSDFLSLPFQAIECSLARIAPTGEEWEEEALDEFDRLTHCADWKPLVAKISSYVQTGISTWPKIYLYDTSDEKKLDIGLELVRKGYAVELPEDMEENRTVPNMLKDMATETDDSLASILTETKKSPEEMPHTLSCLSLSEAASMSGDDNLEDDLF
Regarding B4, the binding entry in assay [3] and in assay [4] was “binds” each time.
